The whole screen tested about 320,000 compounds, of which about 2,100 (0.66%) were called active. This list was built around the results that the source calls inconclusive (neither active nor inactive); the mix of calls is not that of the screen. Calls follow the shape of the dose curve; as a rule, active = well fitted inhibition curve with a large enough effect in the signal ratio, with a control signal flat (not every such curve was filed as active); inconclusive = small, poorly fitted or top-dose-only effect, or effect the other way, or a change in a side signal; inactive = flat fitted curve, though single readings scatter; the % refers to the signal ratio. Where the call is inconclusive, the potency comes from a doubtful curve fit.
test: qHTS Assay for Lipid Storage Modulators in Drosophila S3 Cells; details: BODIPY lipid droplet fluorescence, 18-24 h, cells fed with added oleic acid; lipid storage change, negative = inhibition: at 46.1 µM (top of the series) unless noted
How it was run: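 Drosophila S3 cells loaded with oleic acid (400 uM, as added) and compounds at several concentrations; lipid droplets imaged by 488-nm laser-scanning cytometry, 500–530 nm intensity and object ratio to cell channel. Percent activity normalized to 20 uM Triacsin C.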
% is scaled to controls: 0 for no effect and ±100 for the full control effect; potency is read from the fitted curve at half-maximal effect.

Lipid storage change, negative = inhibition, inactive:
CCOc1cccc(OCCn2cnc3ccccc3c2=O)c1

Lipid storage change, negative = inhibition, inconclusive:
c1ccc(-c2nc3ccccc3s2)nc1 37.5%
O=C(NCc1ccncc1)/C(=C\c1ccc(F)cc1)NC(=O)c1ccccc1 23.8%
CC(=O)c1cc(-c2ccccc2)n(CC(=O)N2CCC(N3CCCCC3)CC2)c1C -78.8%
Cc1ccc(S(=O)(=O)N2CCCC2CNC(=O)C(=O)NCCN2CCOCC2)cc1 (stereo not drawn) -1.74%
CCCC(NC(=O)CCc1c(C)c2cc3c4c(oc3c(C)c2oc1=O)CCCC4)C(=O)O (stereo not drawn) 21.7%
CC(C)(C)OC(=O)NCC(=O)Oc1cc2oc(=O)cc(-c3ccccc3)c2cc1Cl -9.03%
CCCCn1c(N)c(N(Cc2ccccc2OC)C(=O)CN2C(=O)NC(C)(c3ccccc3)C2=O)c(=O)[nH]c1=O (stereo not drawn)
O=S(=O)(c1cccc(NC(=S)N2CCN(c3ccccc3F)CC2)c1)C(F)F 17.3%
CCOC(=O)C1=C(Cc2ccc(Cl)cc2)C(=O)c2ccccc2C1=O -56.2%
COc1ccc([N+](=O)[O-])cc1NC(=O)C1C2C=CC(C2)C1C(=O)O (stereo not drawn) 30.6%
O=C(Cc1ccc(Br)cc1)Nc1ccccc1Cl 19.5%
COc1ccc(-c2cnnc(N/N=C/c3c(C)nn(-c4ccccc4)c3Cl)n2)cc1 30.6%
Cc1cc(NC(=O)CCC(=O)N(Cc2ccccc2)C2(C(=O)NC3CCCCC3)CCCC2)no1 1.89%
CN(C(=O)c1nc(-c2ccccc2)n(-c2ccccc2)n1)C1CCS(=O)(=O)C1 (stereo not drawn) -35.2%
Brc1ccc2nc(-c3ccncc3)c(NC3CCCC3)n2c1 -15.4%
Cc1ccc(C(=O)NC2CCCCC2)cc1S(=O)(=O)N1CCCC1 0.7%
CN1/C(=C\C(=O)C[n+]2cccc(Br)c2)C(C)(C)c2ccccc21 -29.3%
COc1ccccc1N=C(C)C1=C(O)CC(c2ccccc2)CC1=O (stereo not drawn) -70.4%
COC(=O)c1ccc(N=Nc2ccccc2)cc1 23.9%
O=C(O)Cc1c(C(=O)O)[nH]c2ccc(C(=O)O)cc12 -9.8%
CCOC(=O)N1CCN(C(=O)CN(c2cc(Cl)ccc2OC)S(=O)(=O)c2ccccc2)CC1 -18.3%
CCCOc1ccc(/C=C/C(=O)Nc2ccc([N+](=O)[O-])cc2)cc1 13.1%
Cc1occc1C(=O)NNC(=O)c1ccc(Br)o1 -16.4%
Nc1ccccc1C(=O)N1CCC(O)(c2ccc(Cl)cc2)CC1 49.4%
Cc1cccc(N2CCN(S(=O)(=O)c3c(C)[nH]c(=O)[nH]c3=O)CC2)c1C -27.6%
COc1ccc(C(=O)c2sc3nc(C)cc(-c4cccs4)c3c2N)cc1 -31.3%
Cc1cc(C)c(OCC(=O)Nc2cccc(O)c2)cc1C -31.3%
COCCCN1C(=O)/C(=C\c2cccs2)C(C(=O)OC)=C1C 3.53%
O=C1CN(C(=O)c2ccccc2)C(c2ccc(F)cc2)c2cc(Br)ccc2N1 (stereo not drawn) -10.1%
CC(=O)OC(C(=O)NC1CCCCC1)c1ccc(Cl)c(Cl)c1 (stereo not drawn) 1.6%
COc1ccc(N2CCN(C(=O)CCN3C(=O)C4C5C=CC(C5)C4C3=O)CC2)cc1 (stereo not drawn) -11.6%
CC12COC3(C(=O)Nc4ccccc4)CC1CCC32C (stereo not drawn) 0.0494%
NC(=O)COC(=O)Cc1coc2cc3c(cc12)CCC3 -0.967%

Arranged by number of heavy atoms (largest number first): 3 of the compounds above
Lipid storage change, negative = inhibition, inconclusive:
Nc1ccccc1C(=O)N1CCC(O)(c2ccc(Cl)cc2)CC1 49.4%
Cc1occc1C(=O)NNC(=O)c1ccc(Br)o1 -16.4%
c1ccc(-c2nc3ccccc3s2)nc1 37.5%

Next part.

Potency, inconclusive:
O=C(Oc1ccc2ccccc2c1)c1ccccc1 25.9 µM [falling, single point]
O=C(Nc1ccc(-c2nc3ncccc3o2)cc1)c1ccc([N+](=O)[O-])o1 0.231 µM [falling, full curve, poor fit]
Cc1ccc(NC(=O)Cc2nc(COC(=O)C(C)NS(=O)(=O)c3ccc(C)cc3)cs2)cc1 (stereo not drawn) 23.1 µM [activator, single point]
COc1cccc(C(=O)OCC(=O)NC(C)CCc2ccccc2)c1O (stereo not drawn) 29.1 µM [falling, single point]
CCN(CC)CCN(Cc1cc2ccc(C)cc2[nH]c1=O)C(=S)Nc1ccccc1C(=O)OC 29.1 µM [falling, single point]
CCC(c1nnnn1CCOC)N(Cc1cc2c(C)cc(C)cc2[nH]c1=O)CC1CCCO1 (stereo not drawn) 20.6 µM [falling, single point]
CCCCn1c(N)c(N(CCC(C)C)C(=O)C2=NN(c3ccccc3)C(=O)CC2)c(=O)[nH]c1=O 0.517 µM [activator, partial curve, poor fit]
O=C(Nc1cccc(S(=O)(=O)N2CCOCC2)c1)C1CCN(S(=O)(=O)c2ccccc2)CC1 0.651 µM [falling, full curve, poor fit]
N#CC1=C2SCN(Cc3ccco3)CN2C(=O)CC1c1c(F)cccc1Cl (stereo not drawn) 3.26 µM [falling, full curve, poor fit]
O=C(CCc1nc2ccccc2c(=O)[nH]1)Nc1cc(Cl)ccc1N1CCCCC1 0.0041 µM [rising, full curve, poor fit]
Cc1ccc(-c2cnco2)cc1 6.51 µM [falling, single point]
O=S(=O)(c1ccc(F)cc1)c1nc(-c2ccccc2F)oc1N1CCCCC1 1.16 µM [activator, full curve]
Cc1oncc1C(=O)Nc1cccc2ccccc12 25.9 µM [activator, single point]
COc1ccc(CCNC(=O)C(C)n2nc(C)n3c(cc4occc43)c2=O)cc1OC (stereo not drawn) 32.6 µM [activator, single point]

— PubChem BioAssay AID2685 (National Center for Advancing Translational Sciences (NCATS), 2010)
